The supplement of paper PMC5949888
Most values lie at the floor of the assay. Slopes are relative: functional sequences can read slightly below zero.

tested on: Saccharomyces cerevisiae PS128 hsf1 delta, HSF1(1-493) fusion; test: growth estimate (transactivation domain function in HSF1 fusion, heat-shock survival) (a.u. (slope of normalised read count over time)); higher = stronger growth at 37°C, i.e. more transactivation activity; details: library: random library

Substance | growth estimate
VIWTESAGALVIPVRNSIIG | < -0.25
RYQQKSLAVPWYQWPRCL | < -0.25
LAFNSYAF | < -0.25
CTSGDGTLDKVFQKANDGCA | < -0.25
VGSCGLSCFGLSSERRFVRY | < -0.25
LVFITESSLRQVGHSV | < -0.25
VHY | < -0.25
EFASVRIGIVHAL | < -0.25
RFLEGRPSVMRDEKLALPRD | < -0.25
LVAPGDRGLLGGRPNLRGSA | < -0.25
SMVTDAIS | < -0.253
HSPCEQSTGSESFPRGTGSA | < -0.25
WGNSLCEIPN | < -0.25
WGTEFNELTLVRELILLAQV | < -0.25
VPFGYFNSATKALDWENSRT | < -0.25
KRPKSKCCSVGKPLGRRGRR | < -0.25
GPKPRMLREPYRSGRLTLPS | 0.0112
IARGFLWGWEYSQSICLSEG | -0.24
WFFLRVHYGSLMKDFLGDFW | < -0.25
RGYHLGCIG | < -0.25
VGLGLRNRKYT | < -0.25
DKFRRQVRCADRESGLSRQR | < -0.25
DPVVADRSG | < -0.25

Substance | growth estimate
RIAKVEQRYRH | -0.248
FEKLE | < -0.25
CKITSLWAAG | -0.196
DSGPWTGAILRARCCIYSLL | < -0.25
GTTNRRL | < -0.25
PRHTLCKIGVNPLGALYEVG | -0.246
CGHGKIFSVGAHEYWGSLSP | -0.187
VKGARWQLVNRRVGDRLCEP | < -0.25
ALSELICPDKLTSRRVGL | < -0.25
RDRISVTKCYCTIDDIEQGP | < -0.25
ETYCGQAHRGYYDWKNPVAV | < -0.25
KTSA | < -0.25
RVAYVLRLWSSITRCHAALP | < -0.25
NSNRYMSSVAN | < -0.25
RCGVI | < -0.25
LKRIRIALAINSARDKGPYS | < -0.25
DRRGWIVRPNSAAHCGRPRG | -0.25
GSIKRICREVVCINTLAVQP | < -0.25
FHSDGAGRVSFCRARGKHWC | < -0.25
EVE | 0.522
LRCDSDGESASCE | < -0.25
EVRGAHSLTVVHPLWIDAPR | < -0.25
SEGHPTTSFAEGTEG | < -0.25

Substance | growth estimate
SVYCH | < -0.25
LVHGIAGTSKYAIGIRIWGA | < -0.25
RNRR | < -0.25
LPVEGRGGCWNPVFIMTETG | < -0.25
SLK | < -0.25
GGKWIREIDGVINRTRRSGL | < -0.25
CSMGAGSASRGSHVGKYHMT | < -0.25
HPCKSSLS | < -0.25
LFLQACLVRLTPTKASVLRP | < -0.25
IPPKVLTSMIAKEDRCPSAG | < -0.25
TLMGGCTEILHLH | < -0.25
TRGSSEGEPAKISVHGSLLP | < -0.25
AMEGCKARWCRRA | < -0.25
MTFVVSVPCPGNPSLAYRVS | < -0.25
GIWPSHGDSLNLRNCSACYW | -0.178
AGWML | < -0.25
GFESAWVLGWNPMWFSSNAS | -0.246
ASTL | < -0.25
SSAYVV | < -0.25
PDLSVITLEMRSQSLGTLRP | < -0.25
SLRSWHNTDKWKFFSG | < -0.25
GRLTPNNPISVCKQTNGGRP | < -0.25
ASQNVQLNQGSVVRGMGSAW | < -0.25

Substance | growth estimate
CER | < -0.25
RSKDHGSTKGR | < -0.25
HVPVRPERSKNGWTRTRITG | < -0.25
LLDKP | < -0.25
TKWTSPPELLPACLF | -0.241
GGSGAQNGST | < -0.25
PVF | < -0.25
ERTKNRVTDSDVVPLT | < -0.25
QAHFLGRYDLMG | < -0.25
ERKMMLSDPAAVSLERRCLG | < -0.25
PSTPLRLQAPDVEVMF | < -0.25
CKSTCSRADLAGHTYLSLTT | < -0.25
SKAAHSVVT | < -0.25
QSVADRS | < -0.25
KSGVGSDWLGILRVPGEQRG | < -0.25
SSVVGETELCGVRVLTPLRS | < -0.25
MTRYRYGQAPLSIGAAD | < -0.25
LLDGKGALRQCARRQSTYGA | < -0.25
LVLHFGTAFL | < -0.25
EIQTPGNPAKGDRGNRLPGW | < -0.25
PLLHQESHRVCPGHTNSLDR | -0.228
SEQQLDRVSI | < -0.25
VDCFQPPTYSIGSLSGAACG | < -0.25

Substance | growth estimate
QIEPYGPRRG | < -0.25
LVKVVRTKSR | < -0.25
LGGYTGKDLSVQWIWTVWAY | < -0.25
HSQPLQDNCVDRNSCFAQRG | < -0.25
TRRRMGSSSTGDSDSSERSR | < -0.25
HVEVIAYPKRPAACGTPIVP | < -0.25
RCMHPLCKA | < -0.25
VASMTSRGRTNVGLGSATLL | < -0.25
VDRLLVRVQVRIHGLCTFFE | < -0.25
RMTGTLTNPDKRGDVFTARL | < -0.25
IDLLSGSLNQLEKLARGQGD | < -0.25
ANMEVFVAQGAIHEEVVPLG | < -0.25
LDSRTSSGAIITGLSGWRPR | < -0.25
TGGRSYLVTMRGVTRASRQS | < -0.25
LCVQLDDDIALYVGNMVRPL | < -0.25
VQGSSARPC | < -0.25
GTA | < -0.25
RFTLTRDHVVGSST | < -0.25
FCI | < -0.25
STGNVNRGWIATPGDVTWRD | < -0.25
VISGQRPGTQGGITK | < -0.25
PAVM | < -0.25
LCPEPQFSLWTS | < -0.25

Six entries from above, reformatted:
Substance	growth estimate
GTA	< -0.25
RFTLTRDHVVGSST	< -0.25
FCI	< -0.25
STGNVNRGWIATPGDVTWRD	< -0.25
VISGQRPGTQGGITK	< -0.25
PAVM	< -0.25

Next part.

Substance | growth estimate
WPIIESQQHQ | < -0.25
CDPVAHHMSGANSGME | < -0.25
NATGRAWCA | -0.0712
SIGV | < -0.25
TRL | < -0.25
GGIRETFVGSARGDIPRRPS | < -0.25
SCTDCTQSPSSDMLGTMPCH | < -0.25
NGWVVTAAL | < -0.25
AKPWC | < -0.25
HYWYQHKG | < -0.25
YRWRTGTLAWIKS | < -0.25
TGT | < -0.25
TYLCGTKISESKDGVHASPH | < -0.25
RHTRVIAGLKRGRDGMAVAV | < -0.25
HQSGH | < -0.25
GVRRFDWWKVIHGAWRPNQL | < -0.25
PSGVLSTSSLLARDR | -0.217
KYSAPTRWHPKLPRFNNAPS | < -0.25
YQPLGFDGSDTMDAFVMTLG | -0.102
AGRKSGHANDLAGDRIPRFH | < -0.25
VRSVGTPVPLDE | < -0.25
RWYFGF | < -0.25
SLSSYTCPSVTRRKPQQFST | < -0.25

Substance | growth estimate
PFSAPTGI | < -0.25
GLYPTGENETQCQTRSSYFV | < -0.25
PSFL | < -0.25
NTHHSRSHSSPGTRGCRANS | < -0.25
LIFTFVARN | < -0.25
REVC | < -0.25
LYLKTLFTENAHSNGRLPRP | < -0.25
LFMR | < -0.25
TTTEQLQ | < -0.25
WCGRGGQHLGKIKCPREVWA | < -0.25
GPAFYLGRKSPPRLVGVPAP | -0.245
RDCMPWDIL | < -0.25
RVFPSYATTRIGQYLRETGG | < -0.25
ESLRACMTVCSSGERQHNAC | < -0.25
IPLGLDVMVYGLWQ | < -0.25
VRPYMRKNNRTAHHHSLTVR | < -0.25
RVSTGTV | < -0.25
ARVSIIVETVVL | < -0.25
TENPGDGGLVCATSPPALIG | < -0.25
EDSELRMHSAPNHSIPGAFS | < -0.25
